Reference: US20020076800A1
These are yes or no findings as the source states them, for the method shown. Some entries that bind do so weakly or less than the wild type. Tags and fused reporters may be left off the sequences shown.

Target: T1, Human α2Macroglobulin (human) (UniProt P01023)
T1 sequence (looked up): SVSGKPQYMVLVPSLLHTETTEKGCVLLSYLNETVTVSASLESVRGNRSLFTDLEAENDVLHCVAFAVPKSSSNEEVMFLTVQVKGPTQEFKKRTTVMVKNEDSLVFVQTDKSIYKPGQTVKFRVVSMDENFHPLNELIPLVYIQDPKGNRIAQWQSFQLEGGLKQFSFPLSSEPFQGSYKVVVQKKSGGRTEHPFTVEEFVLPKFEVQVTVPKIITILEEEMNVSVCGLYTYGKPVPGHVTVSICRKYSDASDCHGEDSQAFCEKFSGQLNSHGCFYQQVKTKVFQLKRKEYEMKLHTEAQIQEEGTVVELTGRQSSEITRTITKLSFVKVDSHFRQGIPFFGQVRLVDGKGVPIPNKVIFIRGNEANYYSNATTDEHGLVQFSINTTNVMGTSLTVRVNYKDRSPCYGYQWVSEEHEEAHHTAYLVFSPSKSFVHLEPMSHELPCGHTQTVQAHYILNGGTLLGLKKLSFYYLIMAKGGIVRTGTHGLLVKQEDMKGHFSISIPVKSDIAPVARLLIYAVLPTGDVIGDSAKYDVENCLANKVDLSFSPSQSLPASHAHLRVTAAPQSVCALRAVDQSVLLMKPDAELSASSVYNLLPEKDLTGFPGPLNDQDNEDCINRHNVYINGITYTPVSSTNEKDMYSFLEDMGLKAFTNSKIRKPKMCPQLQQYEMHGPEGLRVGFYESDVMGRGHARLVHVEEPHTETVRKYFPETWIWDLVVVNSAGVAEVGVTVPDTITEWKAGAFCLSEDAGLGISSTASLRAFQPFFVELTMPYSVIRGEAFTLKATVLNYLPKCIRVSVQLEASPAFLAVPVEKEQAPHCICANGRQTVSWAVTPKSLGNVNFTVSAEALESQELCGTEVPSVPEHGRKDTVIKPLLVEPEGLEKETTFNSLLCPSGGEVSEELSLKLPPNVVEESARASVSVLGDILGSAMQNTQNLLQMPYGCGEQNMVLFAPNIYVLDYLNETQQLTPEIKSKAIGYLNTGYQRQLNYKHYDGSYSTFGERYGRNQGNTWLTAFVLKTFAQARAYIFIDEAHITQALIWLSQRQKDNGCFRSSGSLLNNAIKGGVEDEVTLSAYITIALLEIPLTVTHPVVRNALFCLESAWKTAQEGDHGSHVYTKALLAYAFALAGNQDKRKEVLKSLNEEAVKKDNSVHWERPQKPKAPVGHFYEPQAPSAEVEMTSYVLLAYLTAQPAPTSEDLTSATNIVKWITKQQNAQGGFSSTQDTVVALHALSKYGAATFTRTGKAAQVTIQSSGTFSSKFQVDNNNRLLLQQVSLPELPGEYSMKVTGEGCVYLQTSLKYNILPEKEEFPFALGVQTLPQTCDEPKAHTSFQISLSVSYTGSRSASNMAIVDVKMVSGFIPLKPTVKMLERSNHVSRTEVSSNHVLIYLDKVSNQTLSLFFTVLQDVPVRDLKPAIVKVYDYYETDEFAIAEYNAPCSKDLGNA
Assay: α2-macroglobulin trapping, protein gel

binding: binds
B1: HipHum 35 construct no.2 (recombinant HH35 protein, catalytic domain only, with a six histidine tag at the amino terminal) (enzyme)
chain: HHHHHHRRSPRAPLSLSRRGWQPRGYPDGGAAQAFSKRTLSWRLLGEALSSQLSVADQRRIVALAFRMWSEVTPLDFREDLAAPGAAVDIKLGFGRGRHLGCPRAFDGSGQEFAHAWRLGDIHFDDDEHFTPPTSDTGISLLKVAVHEIGHVLGLPHTYRTGSIMQPNYIPQEPAFELDWSDRKAIQKLY
